Results from patent US11819554B2, “Compositions and methods for modulating FMR1 expression” (University of Massachusetts, priority 2015, dated 2023).
For some assays here: For at least one compound, name, drawing or mass did not settle the structure. Some results were stated once for a whole list of compounds, not compound by compound. Some ranges recur; such a range may be that of the whole group of compounds.

Assays:
Type in all cases: cell-based, human
[1] = system: epigenetically silenced FMR1 gene in FXS iPSCs (FXS 848-iPS3 cells); test: qRT-PCR analysis monitoring expression of FMR1 in FXS iPSCs
Excerpt: FMR1 expression was normalized to that obtained upon expression of a control non-silencing (NS) shRNA, which was set to 1. […] FMR1 expression was normalized to that obtained upon treatment with the vehicle DMSO, which was set to 1. *P<0.05, **P<0.01.
The results were normalized to that obtained in wild-type iPSCs (BJ1-iPS4 cells), which was set to 1.
The results were normalized to that obtained in wild-type iPSCs (BJ1-iPS4 cells), which was set to 1. […] The levels of FMRP in wild-type iPSCs are shown. Tubulin was monitored as a loading control. […] The results were normalized to that obtained with DMSO, which was set to 1. […] Data are represented as mean±SD.
Data are represented as mean±SD.
All of the factors required for depositing or removing the epigenetic marks mentioned in the above table have been systematically knocked down using short hairpin RNAs (shRNAs) (FIG. 3). These experiments were performed in induced pluripotent stem cells (iPSCs) derived from an FXS patient.
For many of these factors (all except SUV420H1 and SUV420H2), small molecule inhibitors are available (Table 1). Therefore whether small molecule inhibitors can, like RNAi knockdown, de-repress the FMR1 gene was tested. […] In addition, the DNMT inhibitor 5-azacytidine was analyzed as a positive control.
To identify epigenetic regulators that mediate silencing of FMR1, a small-scale short hairpin RNA (shRNA) library comprising 162 shRNAs directed against 33 well-characterized epigenetic regulators that mediate transcriptional repression was assembled. Each shRNA was packaged into lentivirus and transduced into an undifferentiated FXS iPSC line (FXS 848-iPS3 cells). Twenty days post-transfection, mRNA was prepared and FMR1 expression analyzed by quantitative RT-PCR (qRT-PCR). […] For convenience, below factors that promote FMR1 silencing are referred to as FMR1 Silencing Factors (FMR1-SFs).
To determine the level of FMR1 reactivation obtained following shRNA-mediated knockdown of an FMR1-SF, an iPSC line derived from a normal individual (BJ1-iPS4) was analyzed in parallel. […]

[2] = system: FMRP protein in FXS iPSCs (FXS 848-iPS3 cells); test: immunoblot analysis of FMRP protein levels in FXS iPSCs; conditions: immunoblot (FIG. 8B)
[3] = system: epigenetically silenced FMR1 in FXS 848-NPCs; test: qRT-PCR analysis monitoring FMR1 expression in FXS NPCs; conditions: FXS 848-NPCs (FIG. 10A, 10C)
Experimental: (§1) FIGS. 10A-10D show the FMR1-SFs also mediate epigenetic silencing of FMR1 in FXS neural progenitor cells (NPCs). […] The levels of FMRP in wild-type iPSCs, diluted 2-fold (50%), 4-fold (25%) and 8-fold (12.5%) are shown. Tubulin was monitored as a loading control. […] The levels of FMRP in wild-type iPSCs are shown. Data are represented as mean±SD.
(§2) The experiments described above were performed in undifferentiated FXS iPSCs. Whether antagonism of the same set of FMR1-SFs would also reactivate epigenetically silenced FMR1 in FXS NPCs and post-mitotic neurons, the latter of which is a particularly relevant cell type for FXS, was next examined. For these experiments, an FXS NPC cell line that was derived from the FXS 848-iPS3 cells described above was used. Knockdown of any one of the nine FMR1-SFs reactivated epigenetically silenced FMR1 in FXS 848-NPCs at both the mRNA (FIG. 10A) and protein (FIG. 10B) levels. Epigenetically silenced FMR1 was also reactivated at the mRNA and protein levels in FXS 848-NPCs by small molecule inhibitors of FMR1-SFs including 5-azacytidine, chaetocin, EPZ6483, GSK126 and PRT4165 (FIGS. 10C-10D).

[4] = system: FMRP protein in FXS 848-NPCs; test: immunoblot analysis of FMRP levels in FXS NPCs; conditions: FXS 848-NPCs (FIG. 10B, 10D)
Experimental: as §1, §2

[5] = system: epigenetically silenced FMR1 in FXS 848-NPC-derived post-mitotic neurons; test: qRT-PCR analysis monitoring FMR1 expression in FXS post-mitotic neurons; conditions: FXS 848-NPC-derived post-mitotic neurons (FIG. 11C, 11E)
Experimental: (§3) FIG. 11A depicts immunofluorescence showing expression of neuronal markers MAP2 and NeuN in post-mitotic neurons derived from FXS 848-NPCs. FIG. 11B presents images showing lack of staining with an antibody directed the mitotic marker phosphorylated H3 in post-mitotic neurons. […] The levels of FMRP in wild-type iPSCs are shown. […] The levels of FMRP in wild-type iPSCs are shown. […] Data are represented as mean±SD.
(§4) To derive FXS post-mitotic neurons, the FXS 848-NPCs were cultured in the absence of the mitogens EGF and bFGF. Neuronal differentiation was confirmed by staining with the neuronal markers MAP2 and NeuN (FIG. 11A). As expected, the FXS 848-NPC-derived neurons were post-mitotic as evidenced by the lack of staining with an antibody directed the mitotic marker phosphorylated H3 (FIG. 11B). Knockdown of the nine FMR1-SFs reactivated epigenetically silenced FMR1 in FXS 848-NPC-derived post-mitotic neurons at both the mRNA (FIG. 11C) and protein (FIG. 11D) levels. Epigenetically silenced FMR1 was also reactivated in FXS 848-NPC-derived post-mitotic neurons by small molecule inhibitors of FMR1-SFs including 5-azacytidine, chaetocin, EPZ6483, GSK126 and PRT4165 at the mRNA (FIG. 11E) and protein (FIG. 11F) levels. […]

[6] = system: FMRP protein in FXS 848-NPC-derived post-mitotic neurons; test: immunoblot analysis of FMRP levels in FXS post-mitotic neurons; conditions: FXS 848-NPC-derived post-mitotic neurons (FIG. 11D, 11F)
Experimental: as §3, §4

CN1C(=O)[C@@]23C[C@]4([C@]56C[C@@]78SS[C@@](CO)(C(=O)N7[C@H]5Nc5ccccc56)N(C)C8=O)c5ccccc5N[C@@H]4N2C(=O)[C@]1(CO)SS3 [chaetocin]
reactivation of epigenetically silenced FMR1 ([1]; FXS 848-iPS3 cells (FIG. 8A)): reactivated
FMR1 mRNA level after reactivation ([1]; FXS 848-iPS3 cells, normalized to wild-type iPSCs (BJ1-iPS4) (FIG. 8A)): 15-20 % of wild-type levels
FMR1 expression (reactivation of FMR1), qRT-PCR ([1]; FXS iPSCs, normalized to vehicle DMSO (FIG. 4, bottom)): reactivate FMR1
FMRP protein level after reactivation [2]: 15-20 % of wild-type levels
reactivation of epigenetically silenced FMR1 at the mRNA level [3]: reactivated
reactivation of epigenetically silenced FMR1 at the protein level [4]: reactivated
reactivation of epigenetically silenced FMR1 at the mRNA level [5]: reactivated
reactivation of epigenetically silenced FMR1 at the protein level [6]: reactivated
